Results: PubChem BioAssay (NCATS)
Several values for one entry are separate records, joined by “and”; a condition that tells them apart may be missing. Equal entries are not always repeated. This list was built around the results that the source calls inconclusive (neither active nor inactive); the mix of calls is not that of the screen. A potency beside an inconclusive call is a rough fit, not a confirmed value. A note “side channel” means that the fit belongs to a control or component signal, not to the main read-out. Activity calls are given as the source filed them. Calls come from the whole dose curve; as a rule, active = well fitted activation curve with a large enough effect in the signal ratio; inconclusive = small, poorly fitted or top-dose-only effect, or effect the other way, or a change in a side signal; inactive = flat fitted curve, though single readings scatter; the % refers to the signal ratio.
Potency is the fitted concentration of half-maximal effect.

Assay: qHTS assay for small molecule agonists of the antioxidant response element (ARE) signaling pathway (AID 651741); for activation: % of control where 0% means no effect
Settings: HepG2 ARE-bla reporter, beta-lactamase FRET ratio, 16 h; activation: at 96 µM (top of the series)
Summary of the method: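 Beta-lactamase reporter expression driven by the antioxidant response element in HepG2 cells was detected by fluorescence with LiveBLAzer B/G FRET substrate (2 h, room temperature) following 16 h compound treatment at 37 C.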
In the case of `CC1(C)S[C@@H]2[C@H](NC(=O)[C@H](N)c3ccccc3)C(=O)N2[C@H]1C(=O)O`, the Potency is reported as inconclusive: 42.2 µM [activator, partial curve].
With `CC(=O)CC(c1ccccc1)c1c(O)c2ccccc2oc1=O` (stereo not given) the activation was inconclusive: 16.1%.
In the case of `c1cnc2c(c1)ccc1cccnc12`, the Potency is reported as inconclusive: 8.41 µM [side channel, falling, full curve].
For `Cc1ccc(C)c(OCCCC(C)(C)C(=O)O)c1`, the Potency was inconclusive: 77 µM [activator, single point] and inactive.
With `Nc1cc(-c2ccncc2)c[nH]c1=O` the “activation” value was inactive: -8.71%.
With `CC(C)OC(=O)c1cc(C(=O)OC(C)C)cc([N+](=O)[O-])c1` the activation was inconclusive: 12%.
For `COc1ccc(O)cc1`, the “activation” value was inactive: 11.9%.
In the case of `NC(=O)N/N=C/c1ccc([N+](=O)[O-])o1`, the Potency is reported as active: 17.2 µM and active: 21.1 µM.
With `O=C(O)c1cc(O)c2c(c1)C(=O)c1cccc(O)c1C2=O` the Potency was inconclusive: 33.5 µM [cytotoxic, side channel, partial curve].
With `NS(=O)(=O)c1cc(C(=O)O)c(NCc2ccco2)cc1Cl` the Potency was “inactive and inconclusive: 75 µM [activator, partial curve, poor fit]”.
With `C[C@H]1C[C@H]2[C@@H]3CCC4=CC(=O)C=C[C@]4(C)[C@@]3(Cl)[C@@H](O)C[C@]2(C)[C@@]1(O)C(=O)CO` the activation was inconclusive: -2.8%.
In the case of `NCCO`, the “activation” value is reported as inactive: 10.4%.
With `CCC1(c2ccccc2)C(=O)NCNC1=O` the Potency was “inactive”.
For `O=C(c1ccccc1)c1ccccc1`, the activation was inconclusive: 5.47% and inconclusive: -3.61%.
In the case of `Oc1ccc(/C=C/c2cc(O)cc(O)c2)cc1`, the Potency is reported as active: 19.3 µM and active: 37.6 µM.
In the case of `O=c1c(-c2ccc(O)cc2)coc2cc(O)ccc12`, the Potency is reported as active: 27.3 µM and active: 42.2 µM.
In the case of `OC[C@@H](O)[C@@H](O)[C@H](O)[C@H](O)CO`, the Potency is reported as inconclusive: 0.77 µM [activator, full curve, poor fit].
In the case of `CC(C)Cc1ccc(C(C)C(=O)O)cc1` (stereo not given), the “activation” value is reported as inactive: -4.09%.
For `O=C(O)c1ccccc1Nc1cccc(C(F)(F)F)c1`, the activation was inconclusive: 16.2%.
With `N=C1N=C(N)c2cc3ccccc3cc21` the Potency was active: 16.8 µM.
For `C=CCCCCCCCCC(=O)O`, the activation was inconclusive: 9.45%.
With `CC(=O)Oc1ccccc1C(=O)O` the activation was inconclusive: -7.07% and inconclusive: 5.26%.
For `NC(=O)c1ccccc1`, the “activation” value was inactive: -2.59%.
With `CCN(CC)CCOc1ccc(/C(=C(\Cl)c2ccccc2)c2ccccc2)cc1` the Potency was inconclusive: 48.6 µM [cytotoxic, side channel, partial curve].
For `O=c1cc(-c2ccc(O)cc2)oc2cc(O)cc(O)c12`, the Potency was active: 24.3 µM and active: 33.5 µM.
